Reference: patent EP1200093B1, “USE OF 2-AMINO-4-(4-FLUORONAPHTH-1-YL)-6-ISOPROPYLPYRIMIDINE IN THE TREATMENT OF GI DISORDERS” (priority 1999, dated 2001)

The chains behind the UniProt entries cited, without tags or fusion partners.
UniProt P41595, whole entry: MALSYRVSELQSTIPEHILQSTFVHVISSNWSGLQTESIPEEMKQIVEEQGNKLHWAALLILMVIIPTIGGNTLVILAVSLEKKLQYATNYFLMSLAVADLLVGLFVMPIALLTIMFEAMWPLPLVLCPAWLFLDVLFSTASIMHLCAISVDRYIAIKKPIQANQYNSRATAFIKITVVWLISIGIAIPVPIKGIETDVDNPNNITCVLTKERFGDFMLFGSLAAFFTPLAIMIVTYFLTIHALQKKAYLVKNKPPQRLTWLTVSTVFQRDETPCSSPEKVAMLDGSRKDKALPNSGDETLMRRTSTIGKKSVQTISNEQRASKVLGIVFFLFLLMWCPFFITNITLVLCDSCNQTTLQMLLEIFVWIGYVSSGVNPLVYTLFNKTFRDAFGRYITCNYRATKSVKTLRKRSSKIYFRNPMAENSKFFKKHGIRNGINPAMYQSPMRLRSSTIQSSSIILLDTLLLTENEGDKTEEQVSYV

Biological target: T1, 5-HT receptor in human colon longitudinal muscle (Homo sapiens, UniProt P41595)
T1 construct: Longitudinal muscle strips (2mm wide by 20mm long) were then cut from the tissue between the taenia coli; from tissue; host or cells: human colon longitudinal muscle strips, electrically stimulated
Assay type: cell-based
Details: antagonism of 5-HT in electrically-stimulated strips; at least 3 donors (RS127445: n>4 donors)

## CC[C@@H](CO)NC(=O)[C@@H]1C=C2c3cccc4c3c(cn4C)C[C@H]2N(C)C1 [Methysergide]
  Affinity (pKB) at the 5-HT receptor in human colon longitudinal muscle: NSA at -9M
